Measurements from paper PMC3722562.

Sequences of proteins named here, by UniProt entry; tags and fusion partners are left off. A change or cut given only in a name is not applied to a line headed by its entry.
UniProt Q04609: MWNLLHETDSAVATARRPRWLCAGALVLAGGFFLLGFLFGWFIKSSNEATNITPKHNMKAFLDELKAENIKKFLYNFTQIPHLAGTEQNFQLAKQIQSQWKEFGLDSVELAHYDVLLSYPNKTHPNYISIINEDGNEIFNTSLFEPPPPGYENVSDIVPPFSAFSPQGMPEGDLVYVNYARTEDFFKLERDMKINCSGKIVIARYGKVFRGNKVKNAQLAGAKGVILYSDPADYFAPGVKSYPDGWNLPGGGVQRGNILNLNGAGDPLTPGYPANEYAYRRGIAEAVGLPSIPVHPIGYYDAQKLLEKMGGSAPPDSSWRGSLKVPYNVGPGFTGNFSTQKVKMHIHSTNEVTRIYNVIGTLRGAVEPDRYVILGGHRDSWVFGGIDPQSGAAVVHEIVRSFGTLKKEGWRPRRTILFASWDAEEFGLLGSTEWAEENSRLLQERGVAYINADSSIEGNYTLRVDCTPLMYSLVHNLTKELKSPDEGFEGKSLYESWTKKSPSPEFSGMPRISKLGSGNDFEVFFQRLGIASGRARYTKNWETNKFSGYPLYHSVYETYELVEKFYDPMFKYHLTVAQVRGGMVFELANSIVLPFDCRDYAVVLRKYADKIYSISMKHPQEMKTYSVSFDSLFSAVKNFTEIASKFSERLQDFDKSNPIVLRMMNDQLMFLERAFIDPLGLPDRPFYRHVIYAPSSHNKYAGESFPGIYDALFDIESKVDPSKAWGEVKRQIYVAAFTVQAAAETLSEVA
UniProt P06494: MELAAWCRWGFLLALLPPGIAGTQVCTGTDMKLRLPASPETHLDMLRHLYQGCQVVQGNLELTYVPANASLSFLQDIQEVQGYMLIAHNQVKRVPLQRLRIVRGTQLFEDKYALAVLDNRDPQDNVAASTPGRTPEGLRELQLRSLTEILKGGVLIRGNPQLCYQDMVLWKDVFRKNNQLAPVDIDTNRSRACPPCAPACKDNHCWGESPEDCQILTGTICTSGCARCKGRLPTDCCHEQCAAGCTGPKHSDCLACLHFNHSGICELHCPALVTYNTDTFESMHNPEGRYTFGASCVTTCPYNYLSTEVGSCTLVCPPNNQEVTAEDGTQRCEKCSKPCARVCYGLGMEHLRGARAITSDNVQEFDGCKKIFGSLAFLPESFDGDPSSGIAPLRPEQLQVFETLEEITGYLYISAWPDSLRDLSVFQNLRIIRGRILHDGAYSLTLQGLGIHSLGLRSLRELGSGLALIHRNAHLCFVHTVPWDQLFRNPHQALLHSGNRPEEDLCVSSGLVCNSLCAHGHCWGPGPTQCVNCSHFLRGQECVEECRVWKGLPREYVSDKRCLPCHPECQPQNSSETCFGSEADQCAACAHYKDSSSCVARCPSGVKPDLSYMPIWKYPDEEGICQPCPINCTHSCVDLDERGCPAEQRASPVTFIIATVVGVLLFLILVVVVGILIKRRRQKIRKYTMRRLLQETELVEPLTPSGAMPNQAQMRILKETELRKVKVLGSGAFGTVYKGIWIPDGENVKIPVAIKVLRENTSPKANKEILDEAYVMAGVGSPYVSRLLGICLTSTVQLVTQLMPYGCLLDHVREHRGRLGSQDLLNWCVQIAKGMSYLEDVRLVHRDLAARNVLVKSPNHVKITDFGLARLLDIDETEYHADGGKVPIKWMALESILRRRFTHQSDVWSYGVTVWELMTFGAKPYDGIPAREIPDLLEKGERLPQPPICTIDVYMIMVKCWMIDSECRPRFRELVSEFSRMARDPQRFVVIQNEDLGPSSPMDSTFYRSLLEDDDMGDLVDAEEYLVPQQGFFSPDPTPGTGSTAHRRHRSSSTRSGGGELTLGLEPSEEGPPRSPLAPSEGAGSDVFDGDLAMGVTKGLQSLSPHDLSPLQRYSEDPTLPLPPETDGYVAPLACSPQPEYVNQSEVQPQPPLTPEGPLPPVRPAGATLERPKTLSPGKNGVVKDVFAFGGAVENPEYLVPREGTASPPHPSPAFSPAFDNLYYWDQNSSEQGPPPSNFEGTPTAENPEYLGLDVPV

Columns and labels:
[1] = molecular target: PSMA on PC3(PSMA+) cells (UniProt Q04609); assay: cell fluorescence microscopy; details: 37 C, 2'-fluoro pyrimidines, Cell assays mostly in DPBS at 37 C (4 C for surface binding), washes DPBS, 0.5 M NaCl +/- 0.2 N acetic acid or trypsin, Qdot flow after 10% FBS/DPBS block, protein on the cell surface
[2] = molecular target: PSMA on PC3(PSMA+) cells (UniProt Q04609); assay: flow cytometry; details: 1 uM FAM-A9g, 4 C and 37 C; 2'-fluoro pyrimidines; Cell assays mostly in DPBS at 37 C (4 C for surface binding), washes DPBS, 0.5 M NaCl +/- 0.2 N acetic acid or trypsin; Qdot flow after 10% FBS/DPBS block; protein on the cell surface
[3] = molecular target: PSMA on PC3(PSMA+) cells (UniProt Q04609); assay: plate-reader fluorescence on fixed cells; details: 200 nM FAM-A9g, signal lost with 0.5 M NaCl wash; 2'-fluoro pyrimidines; Cell assays mostly in DPBS at 37 C (4 C for surface binding), washes DPBS, 0.5 M NaCl +/- 0.2 N acetic acid or trypsin; Qdot flow after 10% FBS/DPBS block; protein on the cell surface
[4] = tested on: TrkB on HEK293 cells; assay: antibody amplification cell microscopy; details: 100 nM, 37 C; 2'-fluoro pyrimidines; Cell assays mostly in DPBS at 37 C (4 C for surface binding), washes DPBS, 0.5 M NaCl +/- 0.2 N acetic acid or trypsin; Qdot flow after 10% FBS/DPBS block; protein on the cell surface; label: 3'-FAM
[5] = molecular target: HER2 (rat) (rat) (UniProt P06494); assay: plate-reader fluorescence on fixed cells; details: 1 uM FAM-E1, residual after 0.5 M NaCl wash; 2'-fluoro pyrimidines; Cell assays mostly in DPBS at 37 C (4 C for surface binding), washes DPBS, 0.5 M NaCl +/- 0.2 N acetic acid or trypsin; Qdot flow after 10% FBS/DPBS block; protein on the cell surface; label: FAM

GGGACCGAAAAAGACCUGACUUCUAUACUAAGUCUACGUUCCC [A9g]
binding result ([1]; 500 nM FAM-A9g, no signal in PSMA- cells): binds
binding result [2]: binds
binding result [3]: binds

GGGAGGACGAUGCGGGACUAGCGAUCUGUUACGCACAGACGACUCGCCCGA [Scr]
binding result ([1]; 500 nM, label: 5'-FAM): no binding

GGGAGGACGAUGCGGUCGUAUUAUCCGCUGCACGCCAGACGACUCGCCCGA [C4-3]
binding result [4]: binds

GGGAGGACGAUGCGGUCCUGUCGUCUGUUCGUCCCCAGACGACUCGCCCGA [E1]
binding result [5]: binds

GGGAGGACGAUGCGGUUUGGGGUUUUCCCGUGCCCCAGACGACUCGCCCGA [Scr2 (control aptamer for TrkB)]
binding result [4]: no binding

The exact form of at least one protein or probe is not confirmed. Where cells or extracts were used, other partners may take part. For some of these results: No signal at the amounts used counts as a negative.
